Test results: patent publication US10136645B2, “Antimicrobial composition” (MicroBio Solutions Inc., priority 2015, dated 2018)
At least one structure is not confirmed: it was looked up by name or label, or the drawing left a doubt.

Tested on: E. coli
Assay: Minimal bactericidal time (MBT) at different contact times
Assay type: cell-based
Conditions: 100 active ppm LAE alone; units printed in the cell
Procedure: The antimicrobial effectiveness of the compositions of the present invention was tested. In this experiment, the test organism was E. coli and the final bacterial concentrations was 10^6 to 10^7 cfu/ml. Inoculum was contacted with either the combinations of LAE/H2O2 or individual, at different active concentration levels for a contact time of 30 seconds or more. The aliquots of this contaminated solution is used for determinate the minimal bactericidal concentration (MBC) for kill bacteria in the aliquots at 30 sec. contact time. Table 1 summarizes the efficacy of each biocide and their blends, and the Synergy index of each combination. In the same condition the minimal bactericidal time (MBT) was also evaluate with a combination of LAE:H2O2 (1:10) at different contact time. The table 2 summarizes the minimal bactericidal time for each biocide and a blend.

CCCCCCCCCCCC(=O)N[C@@H](CCCN=C(N)N)C(=O)OCC [LAE, Lauric arginate ethyl ester] gave an MBT of 3 min. 30 sec.
